# Reference: paper PMC12040169 (PLOS Biology, 2025)
# The other results are listed elsewhere or left out.
# System: T1, CTL2-GFP (C. trachomatis L2/434/Bu, GFP-expressing)
# T1 construct: L2/434/Bu, GFP-expressing
# Set-up: species or system HeLa; Intracellular C. trachomatis growth in HeLa cells, bulk GFP fluorescence relative to DMSO
# Conditions: bulk GFP, single well; 28.5 h, 10 µM; inhibitor
row,Compound,% of control remaining [%]
1,O=C(Oc1ccccc1)c1ccnc(Cl)c1 [CBK090322],128.625
2,CN1CCC(N2CCN(C(=O)Nc3cccnc3)CC2)CC1 [CBK156111],105.301
3,Cc1nc(C)c(-c2csc(Nc3ccc(C(=O)O)c(O)c3)n2)s1 [CBK267263],132.589
4,CCC(Oc1ccccc1)C(=O)Nc1cc(OC)c(Cl)cc1OC (stereo not drawn) [CBK262235],98.1918
5,O=C(COc1ccc2oc3c(c2c1)CCCC3)Nc1cccc2cccnc12 [CBK266137],145.316
6,Cc1cc(C[C@@H]2COC[C@H]2NCc2c(F)cccc2Cl)on1 [CBK282994],131.025
7,COc1ccc(C(=O)NCCCc2nc3ccccc3[nH]2)cc1OC [CBK270018],87.0956
8,CC1CCCCN1Cc1ccc(-c2nnn(CC(=O)NCc3ccco3)n2)cc1 (stereo not drawn) [CBK122002],100
9,O=C(O)CSc1nnc(-c2ccc(F)cc2)o1 [CBK068115],139.374
10,NCCCOc1cncc(N2CCCC2)n1 [CBK115603],97.0112
11,COC(=O)c1sc(NC(=O)C2CCCCC2C(=O)O)c(C(=O)OC)c1C (stereo not drawn) [CBK265389],106.646
12,CCn1c(/C=C/C2=CCN(C)CC2)nc2ccccc21 [CBK283745],125.571
13,Cc1ccc(C)c(CSC2CCN(C3CCOCC3)C2=O)c1 (stereo not drawn) [CBK304865],126.92
14,Cc1ccc(OCC(=O)NC(=S)Nc2cccc(-c3nc4ncccc4o3)c2C)cc1 [CBK263925],95.612
15,COc1ccc2c(ccn2S(=O)(=O)c2ccc(N3CCNCC3)c(C(F)(F)F)c2)c1 [CBK034033C],57.7864
16,O=C(O)c1ccc(CN2CCOC[C@H]2c2nc(-c3ccc(C(F)(F)F)cc3)c[nH]2)cc1 [CBK289317],107.054
17,CC(C)C(=O)Nc1ccc2nc(-c3ccoc3)c(-c3ccoc3)nc2c1 [CBK286304],116.271
18,O=C(c1ccccc1)n1c(=S)nc2n(c1=S)CCN2 [CBK021794],151.567
19,CSc1cccc(CN2C[C@H]3CN(C(=O)C4CCC4)C[C@@]3(C(=O)O)C2)c1 [CBK307645],159.182
20,CN1C2C=C(N(CCc3ccccc3)C(=O)c3ccc(Cl)cc3)CC1CC2 (stereo not drawn) [CBK262604C],100
21,Cc1noc(C)c1C(=O)N1CCN(CCc2ccccc2)CC1 [CBK200225],96.2045

row,Compound,% of control remaining [%]
1,Oc1ccc(/C=N/c2nnn[nH]2)cc1 [CBK260976],92.3364
2,c1cn2cnnc2c(N2CCOC(c3ccsc3)C2)n1 (stereo not drawn) [CBK306379],104.29
3,Cc1ccc2nc(CSc3ncnc4sc(C)cc34)[nH]c2c1 [CBK270047],112.732
4,COc1ccccc1N1C(=O)c2ccc(C(=O)Nc3cc([N+](=O)[O-])ccc3O)cc2C1=O [CBK264272],128.728
5,O=C1c2ccccc2CN1c1cccc(Cl)c1Cl [CBK109916],116.386
6,COCOc1ccc(-c2ncc(OCCN3CCOCC3)nc2N)cc1 [CBK145100],100
7,O=C(Nc1cncc(OC2CCNCC2)n1)c1cccnc1 [CBK036375T],110.046
8,Cc1nc(C2CCCCN2C(=O)C2CCCCC2)ncc1C(=O)NCc1ccc(F)cc1 (stereo not drawn) [CBK285554],138.832
9,O=S(=O)(c1ccc2ccccc2c1)N1CCN(CCCOc2ccccc2Cl)CC1 [CBK267018],141.684
10,COc1cc(-c2nnc(CSc3nc4sc(C(=O)O)c(C)c4c(=O)[nH]3)o2)cc(OC)c1OC [CBK296973],146.884
11,COc1ccc(Sc2nc(SC)nc(-c3ccccc3)c2C#N)cc1 [CBK291212],98.5798
12,CCCc1nnc2sc(C3CCC(=O)N(C(C)C)C3)nn12 (stereo not drawn) [CBK306942],103.712
13,Cc1nc(CN2CCC(Oc3nccnc3OCc3ccc(Cl)c(Cl)c3)CC2)cs1 [CBK153787],102.467
14,Cc1cc(I)ccc1NC(=O)CCN1C(=O)c2cccc([N+](=O)[O-])c2C1=O [CBK263128],100
15,Nc1c(C(F)(F)F)cc(Cl)nc1Cl [CBK005620],105.039
16,O=c1ccc2c(-c3ccsc3)ccnc2[nH]1 [CBK073724],122.653
17,c1ccc(CNc2nc(-c3ccsc3)cn3ccnc23)cc1 [CBK037868],140.224
18,Cn1cnc(C(=O)N2CCC[C@@H]3NC(=O)c4ccccc4OCCCCC[C@@H]32)c1 [CBK292122],85.6683
19,COc1cc(C=Cc2cc(C(=O)O)c3ccccc3n2)cc(Cl)c1OC(C)C [CBK296941],152.256
20,Cc1cc(CN2CCC(N(C)Cc3nnc(C)n3C)C2)no1 (stereo not drawn) [CBK305088],120.576
21,CN(C)CCN(Cc1cccnc1)C(=O)C1(c2ccccc2F)CC1 [CBK282771],82.4467

row,Compound,% of control remaining [%]
1,FC(F)(F)c1ccc(Sc2ccncc2)nc1 [CBK115217],103.733
2,OCCN1CCN(C(c2ccccc2)c2sc3ncnn3c2O)CC1 (stereo not drawn) [CBK287611],141.366
3,CC(=O)/N=c1\[nH]c(NC(C)=O)nn1-c1ccccc1 [CBK287938],151.824
4,Cc1ccccc1Cn1c(CN2CCCCC2C)nc2c1c(=O)n(C)c(=O)n2C (stereo not drawn) [CBK269199],144.642
5,Cc1ccccc1NC(=O)c1c(NC(=O)Cc2ccccc2)sc2c1CCCC2 [CBK262572],90.3452
6,CC(C)OC(=O)CCNC(=O)c1cccc(S(=O)(=O)N2CCCC2)c1 [CBK306090],163.496
7,CC(=O)NCCN1CCC(O)(c2ccc(C)cc2)CC1 [CBK283321],134.701
8,O=[N+]([O-])c1ccc(N2CCN(Cc3ccccc3)CC2)cc1NCc1ccccc1 [CBK045841],107.968
9,COc1ccc(CN(C(=O)c2cccc(-n3cnnn3)c2)C2CC2)cc1 [CBK256997],125.997
10,Cc1ccc(O)c(NC(=O)c2ccccc2-c2ccccc2C(=O)O)c1 [CBK266763],182.592
11,O=C(O)CSc1nc2ccccc2n2cnnc12 [CBK269831],146.035
12,Cc1nn(CC(=O)NC2CC2)c(=O)c2cc3sccc3n12 [CBK284047],138.405
13,CCCC1=NNC(=O)C1Cc1c(F)cccc1Cl (stereo not drawn) [CBK067753],108.328
14,COc1ccc(-c2cc(C(=O)NCCc3cccc(C(F)(F)F)c3)cnc2-c2ccccc2)cn1 [CBK036662],149.249
15,O=C(O)Cc1ccc(NS(=O)(=O)c2ccc(F)cc2)cc1 [CBK269981],110.283
16,CN(CC1(C)COC1)C(=O)CCc1nc2ccccc2[nH]1 [CBK281719],106.287
17,CNCCOc1ccccc1O [CBK023215C],107.221
18,O=C(O)CC(C(=O)O)N1C(=O)/C(=C\C(Cl)=C/c2ccc([N+](=O)[O-])cc2)SC1=S (stereo not drawn) [CBK261013],100
19,CCOC(=O)c1cnc2ccc(Cl)cc2c1N1CCOCC1 [CBK307627],116.648
20,OCCN1CC2(CCN(CCC(c3ccccc3)c3ccccc3)CC2)c2ccccc21 [CBK126765],100.027
21,O=C(CN1CCCC(c2cccc(Cc3ccc(F)cc3)n2)C1)Nc1nccs1 (stereo not drawn) [CBK286503],91.1107

# 6 entries drawn at random from the list so far, as already listed:
row,Compound,% of control remaining [%]
14,COc1ccc(-c2cc(C(=O)NCCc3cccc(C(F)(F)F)c3)cnc2-c2ccccc2)cn1 [CBK036662],149.249
6,CC(C)OC(=O)CCNC(=O)c1cccc(S(=O)(=O)N2CCCC2)c1 [CBK306090],163.496
5,Cc1ccccc1NC(=O)c1c(NC(=O)Cc2ccccc2)sc2c1CCCC2 [CBK262572],90.3452
3,CC(=O)/N=c1\[nH]c(NC(C)=O)nn1-c1ccccc1 [CBK287938],151.824
9,COc1ccc(CN(C(=O)c2cccc(-n3cnnn3)c2)C2CC2)cc1 [CBK256997],125.997
8,CC1CCCCN1Cc1ccc(-c2nnn(CC(=O)NCc3ccco3)n2)cc1 (stereo not drawn) [CBK122002],100

# Further structures follow:

row,Compound,% of control remaining [%]
1,CCn1cc(CN2CCCN(C(=O)c3cccn(C)c3=O)CC2)cn1 [CBK305375],125.553
2,COc1ccc([N+](=O)[O-])cc1NC(=O)c1cc(Cl)c(OC)c(Cl)c1 [CBK268594],102.789
3,COc1ccc(Cc2nnc(Nc3ccc(OC)cc3)[nH]c2=O)cc1 [CBK287385],126.351
4,O=C(CCN1CCN(Cc2ccccc2)CC1)Nc1ccc(F)cc1 [CBK264261],80.0601
5,CO[C@@H](C(=O)Nc1cnc(-c2cccc(C)c2)c(-c2ccco2)n1)c1ccccc1 [CBK037613],140.001
6,CCOC(=O)C1CCN(C(=O)Cn2cnc3ccc(Br)cc3c2=O)CC1 [CBK306070],76.1103
7,OC1(C2CNc3ccccc3C2)CCNCC1 (stereo not drawn) [CBK283847],102.438
8,CC(C)C(CNCc1ccsc1)c1ccnn1C (stereo not drawn) [CBK304821],92.3342
9,COc1ccc(NC(=O)c2sc(Cl)nc2C)cc1 [CBK057902],105.257
10,CC(C)[C@@H](CO)Nc1nccnc1-c1cccs1 [CBK089024],163.003
11,Clc1ccc(CN2CCN(c3nccnc3OCCN3CCOCC3)CC2)cc1Cl [CBK082884T],122.601
12,CC(=O)NC(CSc1cc(C)nc2ccccc12)C(=O)O (stereo not drawn) [CBK286755],129.437
13,CSc1nnc(N(C)S(=O)(=O)c2ccc(C)cc2)s1 [CBK155272],113.545
14,COc1n[nH]c(CO)c1Cc1c(Cl)cccc1Cl [CBK092283T],94.6716
15,CC1CCCC(C)N1CC(O)COCc1ccc2c(c1)OCO2 (stereo not drawn) [CBK263134C],100
16,N#Cc1ccccc1N1CCN(c2cncc(-c3ccc(CO)cc3)n2)CC1 [CBK037383],112.619
17,Fc1ccc(N2CCN(Cc3cccc(OCc4ccccc4)c3)CC2)cc1 [CBK261916],95.4061
18,O=C(C(Cc1ccccc1)N1C(=O)C2CCCCC2C1=O)N1CCN(Cc2ccc3c(c2)OCO3)CC1 (stereo not drawn) [CBK264648],113.587
